{
  "source": "paper PMC5062114",
  "about": "(Scientific Reports, 2016)",
  "test": "solid-phase peptide synthesis",
  "settings": "whole synthesis, Nexera UHPLC (Shimadzu), scale of the general procedure 0.5 mmol",
  "note": "Some peptides are written in HELM: one residue between dots, names in brackets for other building blocks, links after the first $.",
  "data": [
    {"substance": "PEPTIDE1{C.P.K.I.L.K.K.C.R.R.D.S.D.C.P.G.A.C.I.C.R.Y.[dW].K.V.C.G.Y.H.L.N.Q.P.F.G}$PEPTIDE1,PEPTIDE1,1:R3-18:R3|PEPTIDE1,PEPTIDE1,8:R3-20:R3|PEPTIDE1,PEPTIDE1,14:R3-26:R3|PEPTIDE1,PEPTIDE1,1:R1-35:R2$$$V2.0", "values": [
      {"measurement": "final HPLC purity", "value": ">95", "unit": "%"}
    ]}
  ]
}
